Measured values: the supplement of paper PMC8728848
Some of the results follow.

What was measured:
Assay in all cases: glycan array binding signal (z-score within array); higher = stronger binding
Settings in all cases: glycan notation: IUPAC condensed, linker removed
[1] = target: Gal(b1-4)GlcNAc(b1-2)[Gal(b1-4)GlcNAc(b1-6)]Man(a1-6)[GlcNAc(b1-4)][Gal(b1-4)GlcNAc(b1-2)Man(a1-3)]Man(b1-4)GlcNAc(b1-4)GlcNAc
How it was run: (§1)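 From the Consortium for Functional Glycomics database, 3228 arrays were curated, keeping only those whose protein sequence was available. Binding is given as a within-array Z-score averaged across arrays sharing a protein sequence and across linkers. Negative Z-scores can be read as non-binding.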

[2] = target: Gal(b1-4)GlcNAc(b1-2)[Gal(b1-4)GlcNAc(b1-6)]Man(a1-6)[GlcNAc(b1-4)][Gal(b1-4)GlcNAc(b1-2)[Gal(b1-4)GlcNAc(b1-4)]Man(a1-3)]Man(b1-4)GlcNAc(b1-4)[Fuc(a1-6)]GlcNAc
How it was run: as §1

[3] = target: Gal(b1-4)GlcNAc(b1-3)Gal(b1-3)GalNAc
How it was run: as §1

[4] = target: Gal(b1-4)GlcNAc(b1-3)Gal(b1-3)GlcNAc
How it was run: as §1

[5] = target: Gal(b1-4)GlcNAc(b1-3)Gal(b1-4)Glc
How it was run: as §1

[6] = target: Gal(b1-4)GlcNAc(b1-3)Gal(b1-4)GlcNAc
How it was run: as §1

[7] = target: Gal(b1-4)GlcNAc(b1-3)Gal(b1-4)GlcNAc(b1-2)Man(a1-3)[Gal(b1-4)GlcNAc(b1-3)Gal(b1-4)GlcNAc(b1-2)Man(a1-6)]Man(b1-4)GlcNAc(b1-4)GlcNAc
How it was run: as §1

[8] = target: Gal(b1-4)GlcNAc(b1-3)Gal(b1-4)GlcNAc(b1-2)Man(a1-3)[Gal(b1-4)GlcNAc(b1-3)Gal(b1-4)GlcNAc(b1-2)Man(a1-6)]Man(b1-4)GlcNAc(b1-4)[Fuc(a1-6)]GlcNAc
How it was run: as §1

[9] = target: Gal(b1-4)GlcNAc(b1-3)Gal(b1-4)GlcNAc(b1-2)[Gal(b1-4)GlcNAc(b1-3)Gal(b1-4)GlcNAc(b1-6)]Man(a1-6)[Gal(b1-4)GlcNAc(b1-3)Gal(b1-4)GlcNAc(b1-2)Man(a1-3)]Man(b1-4)GlcNAc(b1-4)GlcNAc
How it was run: as §1

[10] = target: Gal(b1-4)GlcNAc(b1-3)Gal(b1-4)GlcNAc(b1-2)[Gal(b1-4)GlcNAc(b1-3)Gal(b1-4)GlcNAc(b1-6)]Man(a1-6)[Gal(b1-4)GlcNAc(b1-3)Gal(b1-4)GlcNAc(b1-2)Man(a1-3)]Man(b1-4)GlcNAc(b1-4)[Fuc(a1-6)]GlcNAc
How it was run: as §1

[11] = target: Gal(b1-4)GlcNAc(b1-3)Gal(b1-4)GlcNAc(b1-3)Gal(b1-4)GlcNAc
How it was run: as §1

[12] = target: Gal(b1-4)GlcNAc(b1-3)Gal(b1-4)GlcNAc(b1-3)Gal(b1-4)GlcNAc(b1-2)Man(a1-3)[Gal(b1-4)GlcNAc(b1-3)Gal(b1-4)GlcNAc(b1-3)Gal(b1-4)GlcNAc(b1-2)Man(a1-6)]Man(b1-4)GlcNAc(b1-4)GlcNAc
How it was run: as §1

[13] = target: Gal(b1-4)GlcNAc(b1-3)Gal(b1-4)GlcNAc(b1-3)Gal(b1-4)GlcNAc(b1-2)Man(a1-3)[Gal(b1-4)GlcNAc(b1-3)Gal(b1-4)GlcNAc(b1-3)Gal(b1-4)GlcNAc(b1-2)Man(a1-6)]Man(b1-4)GlcNAc(b1-4)[Fuc(a1-6)]GlcNAc
How it was run: as §1

[14] = target: Gal(b1-4)GlcNAc(b1-3)Gal(b1-4)GlcNAc(b1-3)Gal(b1-4)GlcNAc(b1-2)[Gal(b1-4)GlcNAc(b1-3)Gal(b1-4)GlcNAc(b1-3)Gal(b1-4)GlcNAc(b1-6)]Man(a1-6)[Gal(b1-4)GlcNAc(b1-3)Gal(b1-4)GlcNAc(b1-3)Gal(b1-4)GlcNAc(b1-2)Man(a1-3)]Man(b1-4)GlcNAc(b1-4)[Fuc(a1-6)]GlcNAc
How it was run: as §1

[15] = target: Gal(b1-4)GlcNAc(b1-3)Gal(b1-4)GlcNAc(b1-3)Gal(b1-4)GlcNAc(b1-3)Gal(b1-4)GlcNAc(b1-2)Man(a1-3)[Gal(b1-4)GlcNAc(b1-3)Gal(b1-4)GlcNAc(b1-3)Gal(b1-4)GlcNAc(b1-3)Gal(b1-4)GlcNAc(b1-2)Man(a1-6)]Man(b1-4)GlcNAc(b1-4)GlcNAc
How it was run: as §1

[16] = target: Gal(b1-4)GlcNAc(b1-3)Gal(b1-4)GlcNAc(b1-3)Gal(b1-4)GlcNAc(b1-3)Gal(b1-4)GlcNAc(b1-2)Man(a1-3)[Gal(b1-4)GlcNAc(b1-3)Gal(b1-4)GlcNAc(b1-3)Gal(b1-4)GlcNAc(b1-3)Gal(b1-4)GlcNAc(b1-2)Man(a1-6)]Man(b1-4)GlcNAc(b1-4)[Fuc(a1-6)]GlcNAc
How it was run: as §1

[17] = target: Gal(b1-4)GlcNAc(b1-3)Gal(b1-4)GlcNAc(b1-3)Gal(b1-4)GlcNAc(b1-3)Gal(b1-4)GlcNAc(b1-2)[Gal(b1-4)GlcNAc(b1-3)Gal(b1-4)GlcNAc(b1-3)Gal(b1-4)GlcNAc(b1-3)Gal(b1-4)GlcNAc(b1-6)]Man(a1-6)[Gal(b1-4)GlcNAc(b1-3)Gal(b1-4)GlcNAc(b1-3)Gal(b1-4)GlcNAc(b1-3)Gal(b1-4)GlcNAc(b1-2)Man(a1-3)]Man(b1-4)GlcNAc(b1-4)[Fuc(a1-6)]GlcNAc
How it was run: as §1

[18] = target: Gal(b1-4)GlcNAc(b1-3)Gal(b1-4)GlcNAc(b1-3)Gal(b1-4)GlcNAc(b1-3)Gal(b1-4)GlcNAc(b1-3)Gal(b1-4)GlcNAc(b1-2)Man(a1-3)[Gal(b1-4)GlcNAc(b1-3)Gal(b1-4)GlcNAc(b1-3)Gal(b1-4)GlcNAc(b1-3)Gal(b1-4)GlcNAc(b1-3)Gal(b1-4)GlcNAc(b1-2)Man(a1-6)]Man(b1-4)GlcNAc(b1-4)GlcNAc
How it was run: as §1

[19] = target: Gal(b1-4)GlcNAc(b1-3)Gal(b1-4)GlcNAc(b1-3)Gal(b1-4)GlcNAc(b1-3)Gal(b1-4)GlcNAc(b1-3)Gal(b1-4)GlcNAc(b1-2)Man(a1-3)[Gal(b1-4)GlcNAc(b1-3)Gal(b1-4)GlcNAc(b1-3)Gal(b1-4)GlcNAc(b1-3)Gal(b1-4)GlcNAc(b1-3)Gal(b1-4)GlcNAc(b1-2)Man(a1-6)]Man(b1-4)GlcNAc(b1-4)[Fuc(a1-6)]GlcNAc
How it was run: as §1

[20] = target: Gal(b1-4)GlcNAc(b1-3)Gal(b1-4)GlcNAc(b1-3)Gal(b1-4)GlcNAc(b1-3)Gal(b1-4)GlcNAc(b1-3)Gal(b1-4)GlcNAc(b1-2)[Gal(b1-4)GlcNAc(b1-3)Gal(b1-4)GlcNAc(b1-3)Gal(b1-4)GlcNAc(b1-3)Gal(b1-4)GlcNAc(b1-3)Gal(b1-4)GlcNAc(b1-6)]Man(a1-6)[Gal(b1-4)GlcNAc(b1-3)Gal(b1-4)GlcNAc(b1-3)Gal(b1-4)GlcNAc(b1-3)Gal(b1-4)GlcNAc(b1-3)Gal(b1-4)GlcNAc(b1-2)Man(a1-3)]Man(b1-4)GlcNAc(b1-4)[Fuc(a1-6)]GlcNAc
How it was run: as §1

[21] = target: Gal(b1-4)GlcNAc(b1-3)Gal(b1-4)GlcNAc(b1-3)Gal(b1-4)GlcNAc(b1-3)Gal(b1-4)GlcNAc(b1-3)Gal(b1-4)GlcNAc(b1-3)Gal(b1-4)GlcNAc(b1-2)Man(a1-3)[Gal(b1-4)GlcNAc(b1-3)Gal(b1-4)GlcNAc(b1-3)Gal(b1-4)GlcNAc(b1-3)Gal(b1-4)GlcNAc(b1-3)Gal(b1-4)GlcNAc(b1-3)Gal(b1-4)GlcNAc(b1-2)Man(a1-6)]Man(b1-4)GlcNAc(b1-4)GlcNAc
How it was run: as §1

[22] = target: Gal(b1-4)GlcNAc(b1-3)Gal(b1-4)GlcNAc(b1-3)GalNAc
How it was run: as §1

[23] = target: Gal(b1-4)GlcNAc(b1-3)Gal(b1-4)GlcNAc(b1-3)[Gal(b1-4)GlcNAc(b1-3)Gal(b1-4)GlcNAc(b1-6)]GalNAc
How it was run: as §1

B1: MXA PilAct-eGFP (Myxococcus xanthus), Q59589 (protein)
chain: MRVSRFNPRNRGFTLIELMIVVAIIGILAAIAIPNFIKFQARSKQSEAKTNLKALYTAQKSFFSEKDRYSDFANEIGFAPERGNRYGYRVSAAAGDCEVRNAADLPVPAAGVPCISNDSFRFGANSAIDDPTPVVARFVPQGAAGWNTTLGVQPTIADCPNCNFFAGARGNADNEATFDDWVIAGFEGSGQVGPCSEAGNVASGTPYNTRNDVACDGAAQ
- glycan array binding signal (z-score) [1]: 0.776
- glycan array binding signal (z-score) [2]: 0.16
- glycan array binding signal (z-score) [3]: -1.05
- glycan array binding signal (z-score) [4]: -0.29
- glycan array binding signal (z-score) [5]: -0.853
- glycan array binding signal (z-score) [6]: 1.25
- glycan array binding signal (z-score) [7]: 0.107
- glycan array binding signal (z-score) [8]: 2.31
- glycan array binding signal (z-score) [9]: -0.993
- glycan array binding signal (z-score) [10]: 0.219
- glycan array binding signal (z-score) [11]: 1.75
- glycan array binding signal (z-score) [12]: 0.59
- glycan array binding signal (z-score) [13]: 2.05
- glycan array binding signal (z-score) [14]: 1.63
- glycan array binding signal (z-score) [15]: 2.31
- glycan array binding signal (z-score) [16]: 0.64
- glycan array binding signal (z-score) [17]: 3.46
- glycan array binding signal (z-score) [18]: 2.47
- glycan array binding signal (z-score) [19]: 0.551
- glycan array binding signal (z-score) [20]: 2.3
- glycan array binding signal (z-score) [21]: 0.42
- glycan array binding signal (z-score) [22]: -1.23
- glycan array binding signal (z-score) [23]: -0.556
